Results published in patent publication US20080194027.

Tests used:
[1] = system: Sm core proteins (HeLa cytoplasmic extract) (Homo sapiens); assay: EMSA; conditions: Sm core assembly, less efficient than full length; lost on SMN depletion; protein in an extract; label: 32P-UTP
[2] = system: SMN complex (native, flag-Gemin2 purified + SMN, Gemins) (Homo sapiens); assay: pull-down; conditions: phosphorothioate interference at U76, U78; purified native protein; label: 32P-UTP

## AUUUUUG [HSUR5-60 (nt 60-114)]
[1]
  binding result: binds
[2]
  binding result: binds

For some assays here: For at least one entry, the source does not settle the construct or the ends of the probe. For some assays here: Results from cells or extracts need not show a direct contact.
